Assay results as given in patent US20050032696A1.
These are yes or no findings as the source states them, for the method shown. For some of these results: Binding seen in cells or lysates may run through a third protein. Some binding calls cover weakened binding; strength is not graded here. For some of these results: Sequences can lack the tags named with a protein.

T1: wild-type (wt) hMusTRD1α1, full length (human) (UniProt Q9UHL9)
T1 sequence: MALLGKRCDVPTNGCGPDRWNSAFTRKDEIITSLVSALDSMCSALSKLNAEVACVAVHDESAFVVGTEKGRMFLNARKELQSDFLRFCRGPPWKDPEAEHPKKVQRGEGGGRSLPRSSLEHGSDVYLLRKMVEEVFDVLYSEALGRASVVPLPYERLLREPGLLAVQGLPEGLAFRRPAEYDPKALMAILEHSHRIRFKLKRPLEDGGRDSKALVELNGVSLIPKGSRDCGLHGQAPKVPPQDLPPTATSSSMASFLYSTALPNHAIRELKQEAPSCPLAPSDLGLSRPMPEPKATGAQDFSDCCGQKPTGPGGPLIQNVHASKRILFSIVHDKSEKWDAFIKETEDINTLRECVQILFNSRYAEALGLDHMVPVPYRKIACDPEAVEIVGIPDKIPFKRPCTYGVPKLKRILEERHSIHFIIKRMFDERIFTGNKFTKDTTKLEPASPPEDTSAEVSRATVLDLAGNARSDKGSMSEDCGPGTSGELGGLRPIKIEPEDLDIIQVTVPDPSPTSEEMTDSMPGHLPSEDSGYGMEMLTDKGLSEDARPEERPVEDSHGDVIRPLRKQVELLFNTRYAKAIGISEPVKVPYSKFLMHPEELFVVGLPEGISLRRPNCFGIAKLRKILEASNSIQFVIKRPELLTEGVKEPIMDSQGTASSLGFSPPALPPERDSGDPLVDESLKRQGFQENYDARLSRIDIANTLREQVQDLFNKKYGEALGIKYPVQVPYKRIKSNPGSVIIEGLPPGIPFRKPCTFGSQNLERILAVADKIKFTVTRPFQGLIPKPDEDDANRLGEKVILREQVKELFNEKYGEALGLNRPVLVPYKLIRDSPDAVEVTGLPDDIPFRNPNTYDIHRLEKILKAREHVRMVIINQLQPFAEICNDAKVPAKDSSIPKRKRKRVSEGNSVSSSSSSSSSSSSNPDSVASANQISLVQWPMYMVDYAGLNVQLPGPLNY

T2: GST-NCoR1649-2453 (UniProt Q60974)
T2 sequence (looked up): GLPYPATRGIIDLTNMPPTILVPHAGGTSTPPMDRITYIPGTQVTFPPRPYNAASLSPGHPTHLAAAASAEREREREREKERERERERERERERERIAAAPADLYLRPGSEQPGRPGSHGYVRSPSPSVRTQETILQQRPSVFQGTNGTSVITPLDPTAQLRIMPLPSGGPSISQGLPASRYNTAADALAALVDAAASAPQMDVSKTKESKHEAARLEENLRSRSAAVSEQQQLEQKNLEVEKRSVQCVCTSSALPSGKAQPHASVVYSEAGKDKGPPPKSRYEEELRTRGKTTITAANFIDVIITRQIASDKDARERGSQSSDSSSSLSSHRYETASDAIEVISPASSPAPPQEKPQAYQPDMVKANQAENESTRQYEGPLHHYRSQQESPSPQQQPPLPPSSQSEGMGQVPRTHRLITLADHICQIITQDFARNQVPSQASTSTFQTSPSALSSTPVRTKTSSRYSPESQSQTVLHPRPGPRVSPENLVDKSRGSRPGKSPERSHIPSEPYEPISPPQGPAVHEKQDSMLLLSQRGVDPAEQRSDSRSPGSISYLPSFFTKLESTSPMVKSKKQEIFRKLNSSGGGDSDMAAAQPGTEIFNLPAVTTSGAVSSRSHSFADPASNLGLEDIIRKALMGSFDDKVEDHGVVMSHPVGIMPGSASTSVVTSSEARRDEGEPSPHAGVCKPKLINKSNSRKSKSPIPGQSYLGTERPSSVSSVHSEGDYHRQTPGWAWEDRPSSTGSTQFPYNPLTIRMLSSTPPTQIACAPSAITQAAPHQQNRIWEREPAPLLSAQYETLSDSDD


Tests used:
[1] = target: T1, wild-type (wt) hMusTRD1α1, full length (human); assay: yeast two-hybrid mating assay, β-galactosidase reporter
[2] = target: T2, GST-NCoR1649-2453; assay: GST pull-down, phosphorimaging (data not shown)
[3] = target: full length NCoR (pCMXNCoR, entire mouse NCoR cDNA) (mouse) (UniProt Q60974); assay: co-immunoprecipitation from transfected Cos-7 cells with anti-NCoR antibody, anti-c-myc Western blot (data not shown)

binding [1]	binding [2]	binding [3]	Binder
binds			ΔhMusTRD1α1 (truncated human MusTRD1α1, amino acids 1-458) (protein) MALLGKRCDVPTNGCGPDRWNSAFTRKDEIITSLVSALDSMCSALSKLNAEVACVAVHDESAFVVGTEKGRMFLNARKELQSDFLRFCRGPPWKDPEAEHPKKVQRGEGGGRSLPRSSLEHGSDVYLLRKMVEEVFDVLYSEALGRASVVPLPYERLLREPGLLAVQGLPEGLAFRRPAEYDPKALMAILEHSHRIRFKLKRPLEDGGRDSKALVELNGVSLIPKGSRDCGLHGQAPKVPPQDLPPTATSSSMASFLYSTALPNHAIRELKQEAPSCPLAPSDLGLSRPMPEPKATGAQDFSDCCGQKPTGPGGPLIQNVHASKRILFSIVHDKSEKWDAFIKETEDINTLRECVQILFNSRYAEALGLDHMVPVPYRKIACDPEAVEIVGIPDKIPFKRPCTYGVPKLKRILEERHSIHFIIKRMFDERIFTGNKFTKDTTKLEPASPPEDTSAEVS
	binds	binds	hMusTRD1α1350aa (pcDNA3.1hMusTRD1α1350myc/his) (protein, not shown: small tags and cut ends) MALLGKRCDVPTNGCGPDRWNSAFTRKDEIITSLVSALDSMCSALSKLNAEVACVAVHDESAFVVGTEKGRMFLNARKELQSDFLRFCRGPPWKDPEAEHPKKVQRGEGGGRSLPRSSLEHGSDVYLLRKMVEEVFDVLYSEALGRASVVPLPYERLLREPGLLAVQGLPEGLAFRRPAEYDPKALMAILEHSHRIRFKLKRPLEDGGRDSKALVELNGVSLIPKGSRDCGLHGQAPKVPPQDLPPTATSSSMASFLYSTALPNHAIRELKQEAPSCPLAPSDLGLSRPMPEPKATGAQDFSDCCGQKPTGPGGPLIQNVHASKRILFSIVHDKSEKWDAFIKETEDINT
binds			wild-type (wt) hMusTRD1α1, full length (protein) MALLGKRCDVPTNGCGPDRWNSAFTRKDEIITSLVSALDSMCSALSKLNAEVACVAVHDESAFVVGTEKGRMFLNARKELQSDFLRFCRGPPWKDPEAEHPKKVQRGEGGGRSLPRSSLEHGSDVYLLRKMVEEVFDVLYSEALGRASVVPLPYERLLREPGLLAVQGLPEGLAFRRPAEYDPKALMAILEHSHRIRFKLKRPLEDGGRDSKALVELNGVSLIPKGSRDCGLHGQAPKVPPQDLPPTATSSSMASFLYSTALPNHAIRELKQEAPSCPLAPSDLGLSRPMPEPKATGAQDFSDCCGQKPTGPGGPLIQNVHASKRILFSIVHDKSEKWDAFIKETEDINTLRECVQILFNSRYAEALGLDHMVPVPYRKIACDPEAVEIVGIPDKIPFKRPCTYGVPKLKRILEERHSIHFIIKRMFDERIFTGNKFTKDTTKLEPASPPEDTSAEVSRATVLDLAGNARSDKGSMSEDCGPGTSGELGGLRPIKIEPEDLDIIQVTVPDPSPTSEEMTDSMPGHLPSEDSGYGMEMLTDKGLSEDARPEERPVEDSHGDVIRPLRKQVELLFNTRYAKAIGISEPVKVPYSKFLMHPEELFVVGLPEGISLRRPNCFGIAKLRKILEASNSIQFVIKRPELLTEGVKEPIMDSQGTASSLGFSPPALPPERDSGDPLVDESLKRQGFQENYDARLSRIDIANTLREQVQDLFNKKYGEALGIKYPVQVPYKRIKSNPGSVIIEGLPPGIPFRKPCTFGSQNLERILAVADKIKFTVTRPFQGLIPKPDEDDANRLGEKVILREQVKELFNEKYGEALGLNRPVLVPYKLIRDSPDAVEVTGLPDDIPFRNPNTYDIHRLEKILKAREHVRMVIINQLQPFAEICNDAKVPAKDSSIPKRKRKRVSEGNSVSSSSSSSSSSSSNPDSVASANQISLVQWPMYMVDYAGLNVQLPGPLNY
